Test [1] concerns the target RIG-I N-terminal tandem CARD domain construct. As to the kind of experiment: co-IP; domain constructs of RIG-I or USP15 transfected into HEK293T cells for 48 h; Nonidet P-40 lysis buffer; IP with anti-Flag or anti-HA antibodies, IB with anti-Flag or anti-HA.
Test [2] concerns the target RIG-I middle helicase domain construct. The description is as above.

These are yes or no findings as the source states them, for the method shown. Binding seen in cells or lysates may run through a third protein. A result given as binding can be weak or reduced; the word gives no strength. Sequences can lack the tags named with a protein.

B1: HA-tagged USP15 (enzyme, UniProt Q9Y4E8 1-981)
chain: MAEGGAADLDTQRSDIATLLKTSLRKGDTWYLVDSRWFKQWKKYVGFDSWDKYQMGDQNVYPGPIDNSGLLKDGDAQSLKEHLIDELDYILLPTEGWNKLVSWYTLMEGQEPIARKVVEQGMFVKHCKVEVYLTELKLCENGNMNNVVTRRFSKADTIDTIEKEIRKIFSIPDEKETRLWNKYMSNTFEPLNKPDSTIQDAGLYQGQVLVIEQKNEDGTWPRGPSTPKSPGASNFSTLPKISPSSLSNNYNNMNNRNVKNSNYCLPSYTAYKNYDYSEPGRNNEQPGLCGLSNLGNTCFMNSAIQCLSNTPPLTEYFLNDKYQEELNFDNPLGMRGEIAKSYAELIKQMWSGKFSYVTPRAFKTQVGRFAPQFSGYQQQDCQELLAFLLDGLHEDLNRIRKKPYIQLKDADGRPDKVVAEEAWENHLKRNDSIIVDIFHGLFKSTLVCPECAKISVTFDPFCYLTLPLPMKKERTLEVYLVRMDPLTKPMQYKVVVPKIGNILDLCTALSALSGIPADKMIVTDIYNHRFHRIFAMDENLSSIMERDDIYVFEININRTEDTEHVIIPVCLREKFRHSSYTHHTGSSLFGQPFLMAVPRNNTEDKLYNLLLLRMCRYVKISTETEETEGSLHCCKDQNINGNGPNGIHEEGSPSEMETDEPDDESSQDQELPSENENSQSEDSVGGDNDSENGLCTEDTCKGQLTGHKKRLFTFQFNNLGNTDINYIKDDTRHIRFDDRQLRLDERSFLALDWDPDLKKRYFDENAAEDFEKHESVEYKPPKKPFVKLKDCIELFTTKEKLGAEDPWYCPNCKEHQQATKKLDLWSLPPVLVVHLKRFSYSRYMRDKLDTLVDFPINDLDMSEFLINPNAGPCRYNLIAVSNHYGGMGGGHYTAFAKNKDDGKWYYFDDSSVSTASEDQIVSKAAYVLFYQRQDTFSGTGFFPLDRETKGASAATGIPLESDEDSNDNDNDIENENCMHTN
Take B1: the binding result in test [1] and in test [2] was “binds” each time.

The record behind these values is PMC10783007.
